Test results published in PMC2790443.
These are yes or no findings as the source states them, for the method shown. In cells and extracts the contact can be indirect. Binding calls can cover weak binding; strength is not graded here. Sequences can lack the tags named with a protein.

Protein sequences, listed by entry. Tags and fused reporters are not part of them. Lines headed by an entry give the natural chain unless they say otherwise; changes in a name come on top.
UniProt O89023: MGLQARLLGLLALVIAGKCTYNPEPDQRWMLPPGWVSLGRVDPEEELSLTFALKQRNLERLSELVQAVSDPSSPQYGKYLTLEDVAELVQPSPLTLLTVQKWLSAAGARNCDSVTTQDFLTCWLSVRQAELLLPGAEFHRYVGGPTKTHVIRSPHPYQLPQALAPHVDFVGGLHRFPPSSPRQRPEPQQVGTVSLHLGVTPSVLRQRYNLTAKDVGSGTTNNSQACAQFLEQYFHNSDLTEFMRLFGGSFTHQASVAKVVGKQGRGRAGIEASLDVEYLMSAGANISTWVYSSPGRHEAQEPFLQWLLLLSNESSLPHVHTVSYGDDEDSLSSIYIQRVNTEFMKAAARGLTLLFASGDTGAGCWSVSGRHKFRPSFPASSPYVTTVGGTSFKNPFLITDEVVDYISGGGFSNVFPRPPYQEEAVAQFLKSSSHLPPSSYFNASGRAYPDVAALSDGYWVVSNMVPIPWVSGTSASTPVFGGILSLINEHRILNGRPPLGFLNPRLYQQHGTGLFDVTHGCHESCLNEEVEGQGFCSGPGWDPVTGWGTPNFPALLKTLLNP

Molecular target: T1, GST-mCLN5 (mouse CLN5 lacking the signal sequence, aa 26-341, with N-terminal GST) (mouse) (UniProt Q3UMW8)
T1 sequence: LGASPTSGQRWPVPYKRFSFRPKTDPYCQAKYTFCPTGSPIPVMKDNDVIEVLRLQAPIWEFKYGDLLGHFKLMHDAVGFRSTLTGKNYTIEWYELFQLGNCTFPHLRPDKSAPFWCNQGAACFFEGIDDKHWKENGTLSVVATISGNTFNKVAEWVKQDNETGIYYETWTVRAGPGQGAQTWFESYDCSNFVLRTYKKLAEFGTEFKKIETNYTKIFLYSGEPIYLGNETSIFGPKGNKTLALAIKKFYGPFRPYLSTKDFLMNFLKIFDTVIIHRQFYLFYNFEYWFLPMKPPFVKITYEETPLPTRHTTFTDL
Assay: pull-down; GST-mCLN5 used to pull down endogenous NCL proteins from mouse brain extract; Western blot; only the target purified

CLN2/TPP1, endogenous in mouse brain (from UniProt O89023) (enzyme)
binding: binds
